Laboratory results published in US7582631B2, “Substituted heterocyclic compounds and methods of use” (Amgen Inc., priority 2004, dated 2009).
Some results were stated once for a whole list of compounds, not compound by compound.

Protein sequences, listed by entry. Tags and fused reporters are not part of them. Residues count along the entry.
UniProt Q04759, 380-634 limits assumed: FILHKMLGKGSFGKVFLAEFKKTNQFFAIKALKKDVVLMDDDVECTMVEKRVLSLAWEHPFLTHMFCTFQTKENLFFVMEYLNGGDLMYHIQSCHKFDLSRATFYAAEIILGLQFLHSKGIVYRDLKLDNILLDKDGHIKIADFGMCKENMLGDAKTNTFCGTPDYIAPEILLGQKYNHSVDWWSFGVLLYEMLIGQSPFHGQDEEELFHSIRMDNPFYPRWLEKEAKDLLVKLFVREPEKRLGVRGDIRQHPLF

Target: PKCθ (Homo sapiens, UniProt Q04759)
Test: PKCθ Homogeneous Time Resolved Fluorescent (HTRF) Kinase Assay
Settings: read-out: activity in the PKCθ HTRF assay; ATP 25 μM, PKCθ 100 pM, 60 min

IC50, < 50 µM:
COC(=O)CCN1CC2CC1CN2c1nc(-c2ccnc(N[C@@H](C)c3ccccc3)c2)cc2nccn12 (stereo partly drawn) [Example 137, methyl 3-(5-(7-(2-(((1S)-1-phenylethyl)amino)-4-pyridinyl)imidazo[1,2-c]pyrimidin-5-yl)-2,5-diazabicyclo[2.2.1]hept-2-yl)propanoate]
C[C@H](Nc1cc(-c2cc3ncnn3c(N3C[C@@H]4C[C@H]3CN4)n2)ccn1)c1ccccc1 [Example 15, (S)-{4-[5-((1S,4S)-2,5-Diaza-bicyclo[2.2.1]hept-2-yl)-[1,2,4]triazolo[1,5-c]pyrimidin-7-yl]-pyridin-2-yl}-(1-phenyl-ethyl)-amine]
C[C@H](Nc1cc(-n2nc(N3CC4CC3CN4C(=O)OC(C)(C)C)c3ccccc32)ccn1)c1ccccc1 (stereo partly drawn) [Example 123, 1,1-dimethylethyl 5-(1-(2-(((1S)-1-phenylethyl)amino)-4-pyridinyl)-1H-indazol-3-yl)-2,5-diazabicyclo[2.2.1]heptane-2-carboxylate]
c1ccc(CNc2cc(-c3cc4nccn4c(N4CC5CC4CN5)n3)ccn2)cc1 (centres unmarked) [Example 112, 4-(5-(2,5-diazabicyclo[2.2.1]hept-2-yl)imidazo[1,2-c]pyrimidin-7-yl)-N-(phenylmethyl)-2-pyridinamine]
C[C@H](Nc1cc(-n2nc(Cl)c3ccccc32)ccn1)c1ccccc1 [Example 41, (S)-[4-(3-Chloro-indazol-1-yl)-pyridin-2-yl]-(1-phenyl-ethyl)-amine]
CC(C)N1C[C@@H]2C[C@H]1CN2c1nc(-c2ccnc(NCc3ccccc3F)c2)cc2nccn12 [Example 58, (2-Fluoro-benzyl)-{4-[5-(5-isopropyl-(1S,4S)-2,5-diaza-bicyclo[2.2.1]hept-2-yl)-imidazo[1,2-c]pyrimidin-7-yl]-pyridin-2-yl}-amine]
CC(C)N1CC2CC1CN2c1nc(-c2ccnc(NCc3cccs3)c2)cc2nccn12 (centres unmarked) [Example 88, 4-(5-(5-(1-methylethyl)-2,5-diazabicyclo[2.2.1]hept-2-yl)imidazo[1,2-c]pyrimidin-7-yl)-N-(2-thienylmethyl)-2-pyridinamine]
C[C@H](Nc1cc(-c2cc3nccn3c(N3C[C@@H]4C[C@H]3CN4C(C)(C)C)n2)ccn1)c1ccccc1 [Example 115, 4-(5-((1S,4S)-5-(1,1-dimethylethyl)-2,5-diazabicyclo[2.2.1]hept-2-yl)imidazo[1,2-c]pyrimidin-7-yl)-N-((1S)-1-phenylethyl)-2-pyridinamine]
C[C@H](Nc1cc(-c2cc3nccn3c(N3CC4CC3CN4C)n2)ccn1)c1ccccc1 (stereo partly drawn) [Example 106, 4-(5-(5-methyl-2,5-diazabicyclo[2.2.1]hept-2-yl)imidazo[1,2-c]pyrimidin-7-yl)-N-((1S)-1-phenylethyl)-2-pyridinamine]
C[C@H](Nc1cc(-n2nc(N3C[C@@H]4C[C@H]3CN4)c3ccc([N+](=O)[O-])c(O)c32)ccn1)c1ccccc1 [Example 174, 3-((1S,4S)-2,5-diazabicyclo[2.2.1]hept-2-yl)-6-nitro-1-(2-(((1S)-1-phenylethyl)amino)-4-pyridinyl)-1H-indazol-7-ol]
CC(C)N1CC2CC1CN2c1nc(-c2ccnc(NCc3ccccc3)c2)cc2nccn12 (centres unmarked) [Example 126, 4-(5-(5-(1-methylethyl)-2,5-diazabicyclo[2.2.1]hept-2-yl)imidazo[1,2-c]pyrimidin-7-yl)-N-(phenylmethyl)-2-pyridinamine]
C[C@H](Nc1cc(-c2cc3nccn3c(N3C[C@H]4C[C@@H]3CN4C(C)(C)C)n2)ccn1)c1ccccc1 [Example 117, 4-(5-((1R,4R)-5-(1,1-dimethylethyl)-2,5-diazabicyclo[2.2.1]hept-2-yl)imidazo[1,2-c]pyrimidin-7-yl)-N-((1S)-1-phenylethyl)-2-pyridinamine]
Cc1ccc2c(N3C[C@@H]4C[C@H]3CN4)nn(-c3ccnc(NCc4ccccc4)c3)c2c1 [Example 166, 4-(3-((1S,4S)-2,5-diazabicyclo[2.2.1]hept-2-yl)-6-methyl-1H-indazol-1-yl)-N-(phenylmethyl)-2-pyridinamine]
Cc1ccc2c(N3C[C@@H]4C[C@H]3CN4)nn(-c3ccnc(N[C@H](C)c4ccccc4)c3)c2c1 [Example 168, 4-(3-((1S,4S)-2,5-diazabicyclo[2.2.1]hept-2-yl)-6-methyl-1H-indazol-1-yl)-N-((1R)-1-phenylethyl)-2-pyridinamine]
C[C@H](Nc1cc(-n2nc(N3C[C@@H]4C[C@H]3CN4)c3ccc(N)cc32)ccn1)c1ccccc1 [Example 171, 3-((1S,4S)-2,5-diazabicyclo[2.2.1]hept-2-yl)-1-(2-(((1S)-1-phenylethyl)amino)-4-pyridinyl)-1H-indazol-6-amine]
CC(C)N1C[C@@H]2C[C@H]1CN2c1nc(-c2ccnc(N[C@@H](C)c3ccccc3)c2)cs1 [Example 50, (S)-{4-[2-(5-Isopropyl-(1S,4S)-2,5-diaza-bicyclo[2.2.1]hept-2-yl)-thiazol-4-yl]-pyridin-2-yl}-(1-phenyl-ethyl)-amine]
Clc1cccc2c1c(N1C[C@@H]3C[C@H]1CN3)nn2-c1ccnc(NCc2ccccc2)c1 [Example 163, 4-(4-chloro-3-((1S,4S)-2,5-diazabicyclo[2.2.1]hept-2-yl)-1H-indazol-1-yl)-N-(phenylmethyl)-2-pyridinamine]
CC(C)N1CC2CC1CN2c1nn(-c2ccnc(NCc3ccccc3)c2)c2ccccc12 (centres unmarked) [Example 128, 4-(3-(5-(1-methylethyl)-2,5-diazabicyclo[2.2.1]hept-2-yl)-1H-indazol-1-yl)-N-(phenylmethyl)-2-pyridinamine]
CC(C)N1CC2CC1CN2c1nc(-c2ccnc(NCc3cccc(F)c3)c2)cc2nccn12 (centres unmarked) [Example 127, N-((3-fluorophenyl)methyl)-4-(5-(5-(1-methylethyl)-2,5-diazabicyclo[2.2.1]hept-2-yl)imidazo[1,2-c]pyrimidin-7-yl)-2-pyridinamine]
Clc1cccc(CNc2cc(-c3cc4nccn4c(N4CC5CC4CN5)n3)ccn2)c1 (centres unmarked) [Example 114, N-((3-chlorophenyl)methyl)-4-(5-(2,5-diazabicyclo[2.2.1]hept-2-yl)imidazo[1,2-c]pyrimidin-7-yl)-2-pyridinamine]
C[C@H](Nc1cc(-c2cc3nccn3c(N3CC4CC3CN4Cc3ccccc3)n2)ccn1)c1ccccc1 (stereo partly drawn) [Example 132, N-((1S)-1-phenylethyl)-4-(5-(5-(phenylmethyl)-2,5-diazabicyclo[2.2.1]hept-2-yl)imidazo[1,2-c]pyrimidin-7-yl)-2-pyridinamine]
C[C@H](Nc1cc(-n2cc(N3CC4CC3CN4)cn2)ccn1)c1ccccc1 (stereo partly drawn) [Example 121, 4-(4-(2,5-diazabicyclo[2.2.1]hept-2-yl)-1H-pyrazol-1-yl)-N-((1S)-1-phenylethyl)-2-pyridinamine]
CCN1C[C@@H]2C[C@H]1CN2c1nc(-c2ccnc(N[C@@H](C)c3ccccc3)c2)cc2nccn12 [Example 5, (S)-{4-[5-(5-Ethyl-(1S,4S)-2,5-diaza-bicyclo[2.2.1]hept-2-yl)-imidazo[1,2-c]pyrimidin-7-yl]-pyridin-2-yl}-(1-phenyl-ethyl)-amine]
CSc1nc(-c2ccnc(N[C@@H](C)c3ccccc3)c2)cc(N2C[C@@H]3C[C@H]2CN3C(C)C)n1 [Example 13, (S)-{4-[6-(5-Isopropyl-(1S,4S)-2,5-diaza-bicyclo[2.2.1]hept-2-yl)-2-methylsulfanyl-pyrimidin-4-yl]-pyridin-2-yl}-(1-phenyl-ethyl)-amine]
C[C@H](Nc1cc(-c2nc(N3CC4CC3CN4C(=O)OC(C)(C)C)c3ccccc3n2)ccn1)c1ccccc1 (stereo partly drawn) [Example 48, 5-{2-[2--((S)-1-Phenyl-ethylamino)-pyridin-4-yl]-quinazolin-4-yl}-(1S,4S)-2,5-diaza-bicyclo[2.2.1]heptane-2-carboxylic acid tert-butyl ester]
Cn1c(N2CC3CC2CN3)nc(-c2ccnc(NCc3cccs3)c2)cc1=O (centres unmarked) [Example 73, 2-(2,5-diazabicyclo[2.2.1]hept-2-yl)-3-methyl-6-(2-((2-thienylmethyl)amino)-4-pyridinyl)-4(3H)-pyrimidinone]
OCC(Nc1cc(-c2cc3nccn3c(N3CC4CC3CN4)n2)ccn1)c1ccccc1 (centres unmarked) [Example 122, 2-((4-(5-(2,5-diazabicyclo[2.2.1]hept-2-yl)imidazo[1,2-c]pyrimidin-7-yl)-2-pyridinyl)amino)-2-phenylethanol]
C[C@H](Nc1cc(-c2cc(=O)n(C)c(N3C[C@@H]4C[C@H]3CN4)n2)ccn1)c1ccccc1 [Example 22, 2-((1S,4S)-2,5-Diaza-bicyclo[2.2.1]hept-2-yl)-3-methyl-6-[2-((S)-1-phenyl-ethylamino)-pyridin-4-yl]-3H-pyrimidin-4-one]
CC(C)N1C[C@H]2C[C@@H]1CN2c1nc(-c2ccnc(N[C@@H](C)c3ccccc3)c2)cc2nccn12 [Example 109, 4-(5-((1R,4R)-5-(1-methylethyl)-2,5-diazabicyclo[2.2.1]hept-2-yl)imidazo[1,2-c]pyrimidin-7-yl)-N-((1S)-1-phenylethyl)-2-pyridinamine]
CC(C)N1CC2CC1CN2c1nc(-c2ccnc(NC(=O)c3ccccc3)c2)cc2nccn12 (centres unmarked) [Example 90, N-(4-(5-(5-(1-methylethyl)-2,5-diazabicyclo[2.2.1]hept-2-yl)imidazo[1,2-c]pyrimidin-7-yl)-2-pyridinyl)benzamide]
Cc1cc(-c2ccnc(N[C@@H](C)c3ccccc3)c2)nc(N2CC3CC2CN3C(C)C)n1 (stereo partly drawn) [Example 71, 4-(2-(5-isopropyl-2,5-diaza-bicyclo[2.2.1]heptan-2-yl)-6-methylpyrimidin-4-yl)-N-((S)-1-phenylethyl)pyridin-2-amine]
CCN1CC2CC1CN2c1nc(-c2ccnc(N[C@@H](C)c3ccccc3)c2)cc2nccn12 (stereo partly drawn) [Example 84, 4-(5-(5-ethyl-2,5-diazabicyclo[2.2.1]hept-2-yl)imidazo[1,2-c]pyrimidin-7-yl)-N-((1S)-1-phenylethyl)-2-pyridinamine]
